Source: the supplement of paper PMC10849652
Some of the results follow.

Protein sequences, listed by entry. Tags and fused reporters are not part of them. Lines headed by an entry give the natural chain unless they say otherwise; changes in a name come on top.
UniProt P84101: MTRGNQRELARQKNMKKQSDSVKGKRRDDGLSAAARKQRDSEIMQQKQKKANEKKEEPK
UniProt Q96ST3: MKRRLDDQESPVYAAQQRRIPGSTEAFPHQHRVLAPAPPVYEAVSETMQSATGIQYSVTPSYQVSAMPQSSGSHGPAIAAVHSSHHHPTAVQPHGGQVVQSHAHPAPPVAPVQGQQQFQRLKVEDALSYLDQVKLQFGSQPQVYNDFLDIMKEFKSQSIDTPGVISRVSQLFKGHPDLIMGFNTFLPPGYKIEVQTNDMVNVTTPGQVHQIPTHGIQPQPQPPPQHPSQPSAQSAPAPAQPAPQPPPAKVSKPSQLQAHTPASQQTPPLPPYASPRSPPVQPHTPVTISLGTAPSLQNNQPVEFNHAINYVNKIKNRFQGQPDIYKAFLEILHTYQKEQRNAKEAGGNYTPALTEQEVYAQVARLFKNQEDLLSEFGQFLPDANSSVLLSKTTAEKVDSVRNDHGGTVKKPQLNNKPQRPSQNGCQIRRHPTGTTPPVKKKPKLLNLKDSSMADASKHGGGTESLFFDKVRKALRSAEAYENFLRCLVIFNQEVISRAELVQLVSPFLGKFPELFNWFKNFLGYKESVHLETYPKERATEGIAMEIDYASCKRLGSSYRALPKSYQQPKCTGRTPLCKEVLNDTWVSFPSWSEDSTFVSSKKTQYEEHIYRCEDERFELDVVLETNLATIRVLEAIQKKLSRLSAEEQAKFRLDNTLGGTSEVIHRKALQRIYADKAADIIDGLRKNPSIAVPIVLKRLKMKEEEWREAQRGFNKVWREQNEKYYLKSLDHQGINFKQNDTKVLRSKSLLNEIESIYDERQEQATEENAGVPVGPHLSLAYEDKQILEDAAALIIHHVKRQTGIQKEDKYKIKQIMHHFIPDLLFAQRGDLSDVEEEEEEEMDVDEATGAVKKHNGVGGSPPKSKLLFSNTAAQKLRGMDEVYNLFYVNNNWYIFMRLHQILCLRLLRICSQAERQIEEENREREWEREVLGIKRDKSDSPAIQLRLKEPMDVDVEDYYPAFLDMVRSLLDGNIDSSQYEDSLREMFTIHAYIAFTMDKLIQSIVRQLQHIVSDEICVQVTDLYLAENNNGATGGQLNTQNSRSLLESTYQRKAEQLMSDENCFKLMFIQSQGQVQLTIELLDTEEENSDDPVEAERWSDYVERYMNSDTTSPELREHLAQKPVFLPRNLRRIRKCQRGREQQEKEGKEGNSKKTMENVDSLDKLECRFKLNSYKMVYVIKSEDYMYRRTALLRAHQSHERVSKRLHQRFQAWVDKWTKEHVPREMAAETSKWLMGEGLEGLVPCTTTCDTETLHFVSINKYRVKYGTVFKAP
UniProt Q8N6T7, whole entry, looked up: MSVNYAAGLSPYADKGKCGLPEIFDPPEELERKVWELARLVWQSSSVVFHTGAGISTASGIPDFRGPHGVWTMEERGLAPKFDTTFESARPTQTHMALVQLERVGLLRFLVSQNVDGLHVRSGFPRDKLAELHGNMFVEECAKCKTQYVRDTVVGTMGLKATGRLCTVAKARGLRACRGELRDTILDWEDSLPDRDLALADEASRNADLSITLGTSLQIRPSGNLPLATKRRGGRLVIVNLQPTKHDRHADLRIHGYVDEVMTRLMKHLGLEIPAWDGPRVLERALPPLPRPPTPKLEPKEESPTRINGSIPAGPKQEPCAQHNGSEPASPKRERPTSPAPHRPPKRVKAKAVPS
UniProt Q9BXP2: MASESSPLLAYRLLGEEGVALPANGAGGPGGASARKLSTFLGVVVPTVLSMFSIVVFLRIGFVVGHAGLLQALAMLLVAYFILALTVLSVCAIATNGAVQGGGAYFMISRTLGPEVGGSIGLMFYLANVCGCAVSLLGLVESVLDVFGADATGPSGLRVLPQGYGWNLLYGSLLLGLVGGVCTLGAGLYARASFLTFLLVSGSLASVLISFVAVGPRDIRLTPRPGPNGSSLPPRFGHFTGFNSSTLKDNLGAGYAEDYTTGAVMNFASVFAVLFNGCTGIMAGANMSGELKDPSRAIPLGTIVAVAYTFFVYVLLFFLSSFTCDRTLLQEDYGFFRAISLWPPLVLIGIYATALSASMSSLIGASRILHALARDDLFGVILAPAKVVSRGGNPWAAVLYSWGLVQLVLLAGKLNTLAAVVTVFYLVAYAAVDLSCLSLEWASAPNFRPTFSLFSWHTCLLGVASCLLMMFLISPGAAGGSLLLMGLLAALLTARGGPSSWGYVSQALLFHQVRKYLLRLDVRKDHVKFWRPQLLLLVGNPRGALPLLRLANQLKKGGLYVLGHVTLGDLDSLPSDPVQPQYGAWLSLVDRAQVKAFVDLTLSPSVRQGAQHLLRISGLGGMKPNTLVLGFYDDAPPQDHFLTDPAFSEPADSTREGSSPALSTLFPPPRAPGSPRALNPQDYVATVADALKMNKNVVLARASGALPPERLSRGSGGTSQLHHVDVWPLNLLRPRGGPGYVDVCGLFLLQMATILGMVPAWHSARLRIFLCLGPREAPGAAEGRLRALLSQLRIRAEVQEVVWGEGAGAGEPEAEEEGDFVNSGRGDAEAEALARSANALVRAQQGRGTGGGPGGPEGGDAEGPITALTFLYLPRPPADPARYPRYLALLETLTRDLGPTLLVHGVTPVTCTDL
UniProt O75533, whole entry, looked up: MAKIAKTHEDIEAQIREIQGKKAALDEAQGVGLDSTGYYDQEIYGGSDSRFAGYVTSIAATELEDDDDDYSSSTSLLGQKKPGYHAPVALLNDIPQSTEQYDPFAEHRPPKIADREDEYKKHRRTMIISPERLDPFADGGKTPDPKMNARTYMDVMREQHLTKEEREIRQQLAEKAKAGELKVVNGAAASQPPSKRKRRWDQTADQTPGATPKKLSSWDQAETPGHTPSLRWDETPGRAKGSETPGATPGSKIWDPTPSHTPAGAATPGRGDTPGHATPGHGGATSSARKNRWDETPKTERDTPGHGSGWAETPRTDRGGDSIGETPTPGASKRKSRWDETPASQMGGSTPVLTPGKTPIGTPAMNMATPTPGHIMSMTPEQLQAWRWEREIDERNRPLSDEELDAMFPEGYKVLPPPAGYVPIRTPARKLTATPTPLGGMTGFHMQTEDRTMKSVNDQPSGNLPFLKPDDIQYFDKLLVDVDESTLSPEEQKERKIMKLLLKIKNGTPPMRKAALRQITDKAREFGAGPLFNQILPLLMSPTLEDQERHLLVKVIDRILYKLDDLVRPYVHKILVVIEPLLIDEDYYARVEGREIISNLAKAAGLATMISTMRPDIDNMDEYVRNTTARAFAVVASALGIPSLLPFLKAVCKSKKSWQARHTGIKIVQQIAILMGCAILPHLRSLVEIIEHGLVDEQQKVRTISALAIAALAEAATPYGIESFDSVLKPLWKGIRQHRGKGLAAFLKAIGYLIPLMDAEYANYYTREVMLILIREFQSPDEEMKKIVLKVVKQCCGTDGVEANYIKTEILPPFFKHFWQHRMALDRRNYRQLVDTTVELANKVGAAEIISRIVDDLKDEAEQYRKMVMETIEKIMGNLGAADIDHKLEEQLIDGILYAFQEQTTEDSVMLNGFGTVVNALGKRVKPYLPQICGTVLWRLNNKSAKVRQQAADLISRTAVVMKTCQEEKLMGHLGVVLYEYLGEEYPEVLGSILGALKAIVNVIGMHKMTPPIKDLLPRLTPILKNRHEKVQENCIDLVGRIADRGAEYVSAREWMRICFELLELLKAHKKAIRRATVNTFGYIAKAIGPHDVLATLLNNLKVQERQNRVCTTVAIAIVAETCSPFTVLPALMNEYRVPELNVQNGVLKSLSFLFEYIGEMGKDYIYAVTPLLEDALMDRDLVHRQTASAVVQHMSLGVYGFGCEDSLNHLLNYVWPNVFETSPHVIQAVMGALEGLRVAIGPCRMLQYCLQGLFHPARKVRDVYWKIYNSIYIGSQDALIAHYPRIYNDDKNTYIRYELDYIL
UniProt Q9Y371: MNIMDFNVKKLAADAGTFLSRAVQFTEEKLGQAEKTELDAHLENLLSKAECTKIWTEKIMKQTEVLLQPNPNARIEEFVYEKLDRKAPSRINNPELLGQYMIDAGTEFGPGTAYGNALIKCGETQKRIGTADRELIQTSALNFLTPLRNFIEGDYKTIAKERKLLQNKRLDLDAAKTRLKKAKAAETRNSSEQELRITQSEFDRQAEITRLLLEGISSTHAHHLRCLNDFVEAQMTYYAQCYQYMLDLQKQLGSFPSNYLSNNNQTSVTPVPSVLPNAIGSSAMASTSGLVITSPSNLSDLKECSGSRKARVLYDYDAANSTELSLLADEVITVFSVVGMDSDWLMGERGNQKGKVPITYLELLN
UniProt Q12872: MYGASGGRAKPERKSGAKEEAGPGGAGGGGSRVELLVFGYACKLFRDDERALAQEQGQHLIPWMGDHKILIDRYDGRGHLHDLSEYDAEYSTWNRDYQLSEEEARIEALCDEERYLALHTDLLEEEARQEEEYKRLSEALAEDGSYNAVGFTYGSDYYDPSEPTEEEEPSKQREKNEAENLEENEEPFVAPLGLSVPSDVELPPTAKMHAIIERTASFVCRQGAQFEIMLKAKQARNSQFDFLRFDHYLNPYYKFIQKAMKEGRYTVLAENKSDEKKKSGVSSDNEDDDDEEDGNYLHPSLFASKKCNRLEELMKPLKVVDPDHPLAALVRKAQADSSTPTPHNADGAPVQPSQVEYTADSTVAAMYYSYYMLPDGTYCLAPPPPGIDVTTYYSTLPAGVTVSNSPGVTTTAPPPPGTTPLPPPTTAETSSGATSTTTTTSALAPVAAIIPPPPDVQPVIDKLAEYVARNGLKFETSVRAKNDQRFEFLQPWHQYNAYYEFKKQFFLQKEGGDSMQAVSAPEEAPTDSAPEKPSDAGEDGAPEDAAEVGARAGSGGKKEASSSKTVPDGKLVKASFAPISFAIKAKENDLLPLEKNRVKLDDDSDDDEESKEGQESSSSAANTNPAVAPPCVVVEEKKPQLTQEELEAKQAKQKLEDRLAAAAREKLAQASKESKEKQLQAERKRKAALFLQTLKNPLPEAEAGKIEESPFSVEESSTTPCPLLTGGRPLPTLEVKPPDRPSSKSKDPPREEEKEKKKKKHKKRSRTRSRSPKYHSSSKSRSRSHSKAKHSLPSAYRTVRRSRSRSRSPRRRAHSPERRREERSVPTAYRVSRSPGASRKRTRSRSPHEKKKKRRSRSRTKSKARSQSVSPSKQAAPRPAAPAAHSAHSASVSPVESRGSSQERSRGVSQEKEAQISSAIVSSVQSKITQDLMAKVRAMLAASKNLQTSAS
UniProt Q8WVK7: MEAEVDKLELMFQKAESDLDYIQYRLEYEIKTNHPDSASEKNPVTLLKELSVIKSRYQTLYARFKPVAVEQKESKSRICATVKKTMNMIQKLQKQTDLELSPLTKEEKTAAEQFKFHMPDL
UniProt Q8TBC3: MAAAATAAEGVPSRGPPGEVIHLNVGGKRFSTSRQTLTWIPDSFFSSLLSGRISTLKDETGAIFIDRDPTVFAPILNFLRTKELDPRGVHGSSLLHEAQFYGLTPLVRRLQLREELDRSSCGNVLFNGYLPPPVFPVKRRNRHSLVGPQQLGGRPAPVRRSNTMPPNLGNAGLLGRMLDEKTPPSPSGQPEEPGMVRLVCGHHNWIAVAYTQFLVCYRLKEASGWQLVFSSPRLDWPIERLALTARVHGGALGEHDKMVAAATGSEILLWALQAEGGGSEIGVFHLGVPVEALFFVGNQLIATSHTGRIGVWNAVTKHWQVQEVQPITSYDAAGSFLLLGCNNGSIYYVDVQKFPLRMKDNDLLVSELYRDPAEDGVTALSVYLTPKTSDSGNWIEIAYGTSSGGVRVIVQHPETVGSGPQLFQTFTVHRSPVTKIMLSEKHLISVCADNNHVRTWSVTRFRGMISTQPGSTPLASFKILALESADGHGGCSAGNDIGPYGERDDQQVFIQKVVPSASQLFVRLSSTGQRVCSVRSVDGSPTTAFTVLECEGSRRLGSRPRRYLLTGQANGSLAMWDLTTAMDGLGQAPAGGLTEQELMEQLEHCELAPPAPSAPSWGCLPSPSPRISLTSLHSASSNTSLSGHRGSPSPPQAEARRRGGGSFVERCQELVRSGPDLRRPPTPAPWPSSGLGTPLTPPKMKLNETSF
UniProt Q99574: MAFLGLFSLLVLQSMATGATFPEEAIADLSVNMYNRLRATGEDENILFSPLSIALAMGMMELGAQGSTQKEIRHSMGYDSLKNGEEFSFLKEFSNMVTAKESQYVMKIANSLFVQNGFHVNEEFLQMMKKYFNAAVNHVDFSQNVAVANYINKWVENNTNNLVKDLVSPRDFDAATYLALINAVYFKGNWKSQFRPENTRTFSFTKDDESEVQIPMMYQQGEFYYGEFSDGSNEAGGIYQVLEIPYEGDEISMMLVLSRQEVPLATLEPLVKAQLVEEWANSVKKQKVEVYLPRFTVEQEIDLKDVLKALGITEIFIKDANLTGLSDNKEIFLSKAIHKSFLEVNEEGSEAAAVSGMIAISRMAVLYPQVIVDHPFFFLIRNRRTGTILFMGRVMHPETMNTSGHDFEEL

What was measured:
Assay in all cases: log2 fold change, soluble protein after heating vs DMSO (PISA); higher = thermal stabilisation; K562 lysate, 10 uM; active = over 0.2 and 3.5 SD of the protein, either way, in both replicates (recomputed)
nilotinib = compound: Cc1cn(-c2cc(NC(=O)c3ccc(C)c(Nc4nccc(-c5cccnc5)n4)c3)cc(C(F)(F)F)c2)cn1 [nilotinib]
Summary of the method: (§1)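 K562 pellets were dounce-homogenised in PBS pH 7.4 with 1 mM MgCl2, and the crude extract at 1 mg/mL protein was treated with 10 μM compound for 30 min. Aliquots were heated for 3 min across 48°C-58°C, pooled, and brought to 0.5% NP-40 at 4°C; soluble protein was the supernatant after 21,000xg for 90 min. Soluble protein was quantified by TMTpro 16plex LC-MS/MS with channel sums equalised, and reported as log2 fold change in thermal stability against DMSO controls, with values from duplicates.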

[1] = compound: Cc1nc(Nc2n[nH]c3c2CN(C(=O)N[C@H](CN(C)C)c2ccccc2)C3(C)C)c2sccc2n1
Summary of the method: as §1

dasatinib = compound: Cc1nc(Nc2ncc(C(=O)Nc3c(C)cccc3Cl)s2)cc(N2CCN(CCO)CC2)n1 [dasatinib]
Summary of the method: as §1

[2] = compound: Cc1ncc(-c2ccnc(Nc3ccc(S(C)(=O)=O)cc3)n2)n1C(C)C
Summary of the method: as §1

[3] = compound: Cn1cc(-c2ccc3c(c2)CCN3C(=O)Cc2cccc(C(F)(F)F)c2)c2c(N)ncnc21
Summary of the method: as §1

quisinostat = compound: Cn1cc(CNCC2CCN(c3ncc(C(=O)NO)cn3)CC2)c2ccccc21 [quisinostat]
Summary of the method: as §1

tipifarnib = compound: Cn1cncc1[C@@](N)(c1ccc(Cl)cc1)c1ccc2c(c1)c(-c1cccc(Cl)c1)cc(=O)n2C [tipifarnib]
Summary of the method: as §1

[4] = compound: NC(=O)Nc1cc(-c2cccc(F)c2)sc1C(=O)N[C@H]1CCCNC1
Summary of the method: as §1

[5] = compound: NC(=O)c1cnc(N[C@@H]2CCCC[C@@H]2N)nc1Nc1cccc(-n2nccn2)c1
Summary of the method: as §1

[6] = compound: NC1(c2ccc(-c3nc4ccn5c(=O)[nH]nc5c4cc3-c3ccccc3)cc2)CCC1
Summary of the method: as §1

[7] = compound: NCC(=O)Nc1ccc(-n2nc(C(F)(F)F)cc2-c2ccc3c(ccc4ccccc43)c2)cc1
Summary of the method: as §1

vorinostat = compound: O=C(CCCCCCC(=O)Nc1ccccc1)NO [vorinostat]
Summary of the method: as §1

silmitasertib = compound: O=C(O)c1ccc2c(c1)nc(Nc1cccc(Cl)c1)c1ccncc12 [silmitasertib]
Summary of the method: as §1

[8] = compound: O=C1NC(=O)C(c2cnc3ccccn23)=C1c1cn2c3c(cc(F)cc13)CN(C(=O)N1CCCCC1)CC2
Summary of the method: as §1

entospletinib = compound: c1cn2cc(-c3ccc4cn[nH]c4c3)nc(Nc3ccc(N4CCOCC4)cc3)c2n1 [entospletinib]
Summary of the method: as §1

Measured: log2 fold change

SERF2 (UniProt P84101)
inactive: nilotinib -0.098 | [1] 0.11 | dasatinib 0.045 | [2] -0.021 | [3] 0.062 | quisinostat -0.096 | tipifarnib -0.085 | [4] -0.001 | [5] 0.227 | [6] -0.041 | [7] 0.066 | vorinostat 0.151 | silmitasertib 0.059 | [8] 0.016 | entospletinib 0.027

SIN3A (UniProt Q96ST3)
inactive: nilotinib 0.039 | [1] -0.006 | dasatinib -0.017 | [2] -0.038 | [3] -0.007 | quisinostat -0.034 | tipifarnib -0.013 | [4] 0.054 | [5] -0.008 | [6] -0.004 | [7] -0.007 | vorinostat -0.076 | silmitasertib 0.033 | [8] -0.019 | entospletinib -0.003

SLBP (UniProt Q14493)
inactive: nilotinib -0.037 | [1] 0.035 | dasatinib -0.007 | [2] -0.058 | [3] 0.038 | quisinostat -0.09 | tipifarnib 0.015 | [4] 0.016 | [5] -0.054 | [6] 0.1 | [7] -0.011 | vorinostat -0.179 | silmitasertib 0.104 | [8] -0.035 | entospletinib 0.039

SETD3 (UniProt Q86TU7)
inactive: nilotinib -0.025 | [1] 0.057 | dasatinib -0.003 | [2] -0.002 | [3] 0.053 | quisinostat -0.044 | tipifarnib -0.034 | [4] 0.045 | [5] -0.059 | [6] 0.052 | [7] 0.006 | vorinostat 0.012 | silmitasertib -0.009 | [8] -0.025 | entospletinib 0.001

SIRT6 (UniProt Q8N6T7)
inactive: nilotinib 0.03 | [1] -0.099 | dasatinib -0.03 | [2] -0.011 | [3] 0.106 | quisinostat -0.084 | tipifarnib 0.024 | [4] -0.134 | [5] 0.032 | [6] 0.048 | [7] 0.05 | vorinostat -0.057 | silmitasertib 0.149 | [8] -0.085 | entospletinib -0.022

SLC12A9 (UniProt Q9BXP2)
inactive: nilotinib 0.008 | [1] -0.023 | dasatinib -0.003 | [2] -0.07 | [3] -0.03 | quisinostat 0.044 | tipifarnib -0.039 | [4] -0.065 | [5] 0.005 | [6] -0.054 | [7] 0.057 | vorinostat 0.179 | silmitasertib 0.111 | [8] 0.044

SH3BP5 (UniProt O60239)
inactive: nilotinib -0.082 | [1] -0.087 | dasatinib -0.002 | [2] 0.098 | [3] -0.036 | quisinostat -0.01 | tipifarnib 0.056 | [4] 0.011 | [5] 0.187 | [6] -0.011 | [7] 0.014 | vorinostat 0.096 | silmitasertib -0.007 | [8] 0.01 | entospletinib 0.012

SFXN2 (UniProt Q96NB2)
inactive: nilotinib 0.066 | [1] -0.054 | dasatinib 0.013 | [2] -0.052 | [3] -0.005 | quisinostat 0.019 | tipifarnib -0.036 | [4] -0.012 | [5] 0 | [6] -0.006 | [7] -0.01 | vorinostat 0.133 | silmitasertib 0.013 | [8] -0.011 | entospletinib 0.023

SF3B1 (UniProt O75533)
inactive: nilotinib 0.008 | [1] -0.003 | dasatinib -0.013 | [2] 0.007 | [3] -0.002 | quisinostat -0.022 | tipifarnib 0.014 | [4] 0.036 | [5] -0.006 | [6] 0.012 | [7] -0.004 | vorinostat -0.205 | silmitasertib 0.042 | [8] 0.008 | entospletinib 0.02

SH3GLB1 isoform 2 (UniProt Q9Y371)
inactive: nilotinib -0.003 | [1] 0.027 | dasatinib -0.037 | [2] 0.016 | [3] -0.001 | quisinostat 0.06 | tipifarnib -0.063 | [4] 0.011 | [5] 0.017 | [6] 0.016 | [7] -0.051 | vorinostat -0.189 | silmitasertib 0.008 | [8] -0.049 | entospletinib 0.023

SGMS1 (UniProt Q86VZ5)
inactive: nilotinib 0.002 | [1] -0.008 | dasatinib 0.011 | [2] 0 | [3] -0.001 | quisinostat 0.099 | tipifarnib -0.006 | [4] -0.028 | [5] -0.033 | [6] 0.001 | [7] -0.012 | vorinostat -0.078 | silmitasertib -0.034 | [8] -0.179 | entospletinib -0.005

SFSWAP isoform 2 (UniProt Q12872)
inactive: nilotinib -0.013 | [1] 0.019 | dasatinib 0.014 | [2] 0.09 | [3] 0.011 | quisinostat -0.012 | tipifarnib 0.01 | [4] -0.074 | [5] -0.053 | [6] 0.067 | [7] 0.012 | vorinostat -0.005 | silmitasertib -0.094 | [8] -0.031 | entospletinib -0.021

SERPINH1 (UniProt P50454)
inactive: nilotinib 0.031 | [1] -0.038 | dasatinib -0.007 | [2] 0 | [3] -0.006 | quisinostat 0.026 | tipifarnib 0.002 | [4] 0.001 | [5] -0.003 | [6] -0.008 | [7] 0.026 | vorinostat 0.102 | silmitasertib 0.007 | [8] 0.009 | entospletinib 0.006

SKA2 (UniProt Q8WVK7)
inactive: nilotinib -0.062 | [1] 0.015 | dasatinib 0.005 | [2] 0.005 | [3] 0.026 | quisinostat 0.122 | tipifarnib -0.052 | [4] -0.022 | [5] 0.004 | [6] -0.023 | [7] 0.086 | silmitasertib -0.035 | [8] 0.067 | entospletinib -0.028
active: vorinostat -0.364

Fetched one by one from the entries so far, 2 records:
SLBP (UniProt Q14493)
inactive: nilotinib -0.037 | [1] 0.035 | dasatinib -0.007 | [2] -0.058 | [3] 0.038 | quisinostat -0.09 | tipifarnib 0.015 | [4] 0.016 | [5] -0.054 | [6] 0.1 | [7] -0.011 | vorinostat -0.179 | silmitasertib 0.104 | [8] -0.035 | entospletinib 0.039

SF3B1 (UniProt O75533)
inactive: nilotinib 0.008 | [1] -0.003 | dasatinib -0.013 | [2] 0.007 | [3] -0.002 | quisinostat -0.022 | tipifarnib 0.014 | [4] 0.036 | [5] -0.006 | [6] 0.012 | [7] -0.004 | vorinostat -0.205 | silmitasertib 0.042 | [8] 0.008 | entospletinib 0.02

Next records follow.

SHKBP1 (UniProt Q8TBC3)
inactive: nilotinib 0.055 | [1] 0.098 | dasatinib 0.117 | [2] -0.072 | [3] -0.011 | quisinostat -0.039 | tipifarnib 0.088 | [4] -0.016 | [5] 0.007 | [6] -0.096 | [7] -0.031 | vorinostat -0.069 | silmitasertib -0.06 | [8] 0.01 | entospletinib -0.218

SHARPIN (UniProt Q9H0F6)
inactive: nilotinib 0.097 | [1] -0.106 | dasatinib 0.031 | [2] 0.108 | [3] -0.093 | quisinostat 0.055 | tipifarnib 0.149 | [4] -0.004 | [5] 0.097 | [6] 0.073 | [7] -0.1 | vorinostat -0.275 | silmitasertib -0.164 | [8] -0.063 | entospletinib -0.041

SLC12A2 (UniProt P55011)
inactive: nilotinib -0.04 | [1] 0.004 | dasatinib 0.008 | [2] -0.007 | [3] 0.005 | quisinostat 0.016 | tipifarnib -0.04 | [4] 0.048 | [5] 0.008 | [6] -0.01 | [7] 0.005 | vorinostat 0.05 | silmitasertib -0.003 | [8] 0.007 | entospletinib 0.031

SHMT2 (UniProt P34897)
inactive: nilotinib 0.022 | [1] -0.013 | dasatinib -0.005 | [2] 0.006 | [3] -0.006 | quisinostat 0.033 | tipifarnib 0.009 | [4] -0.013 | [5] 0.004 | [6] 0.006 | [7] 0 | vorinostat 0.119 | silmitasertib 0.01 | [8] 0.013 | entospletinib 0.03

SHFL (UniProt Q9NUL5)
inactive: nilotinib 0.015 | [1] -0.034 | dasatinib 0.043 | [2] -0.088 | [3] -0.035 | quisinostat -0.193 | tipifarnib 0.005 | [4] -0.006 | [5] -0.009 | [6] 0.064 | [7] 0.136 | vorinostat 0.119 | silmitasertib -0.077 | [8] -0.019 | entospletinib -0.026

SERPINI1 (UniProt Q99574)
inactive: nilotinib -0.04 | [1] -0.013 | dasatinib 0.038 | [2] -0.034 | [3] -0.013 | quisinostat 0.035 | tipifarnib 0.036 | [4] 0.003 | [5] 0.009 | [6] -0.015 | [7] -0.04 | vorinostat 0.124 | silmitasertib -0.021 | [8] -0.003 | entospletinib -0.016

SHMT1 (UniProt P34896)
inactive: nilotinib 0.025 | [1] 0.003 | dasatinib -0.013 | [2] 0.04 | [3] 0.03 | quisinostat 0.04 | tipifarnib 0.021 | [4] -0.013 | [5] 0.006 | [6] -0.004 | [7] 0.004 | vorinostat 0.117 | silmitasertib -0.002 | [8] -0.019 | entospletinib 0
